Publication doi:10.64898/2025.12.01.691470
These are yes or no findings as the source states them, for the method shown. Binding seen in cells or lysates may run through a third protein. These calls come from enrichment with a bait or labelling near it, and not all partners need be listed. Where a sequence is shown, tags or fusion partners need not be part of it.

T1: HA-tagged GYS1-TbID gene fusion construct (glycogen synthase 1 fused to the biotin ligase TurboID) (UniProt Q9Z1E4)
T1 sequence: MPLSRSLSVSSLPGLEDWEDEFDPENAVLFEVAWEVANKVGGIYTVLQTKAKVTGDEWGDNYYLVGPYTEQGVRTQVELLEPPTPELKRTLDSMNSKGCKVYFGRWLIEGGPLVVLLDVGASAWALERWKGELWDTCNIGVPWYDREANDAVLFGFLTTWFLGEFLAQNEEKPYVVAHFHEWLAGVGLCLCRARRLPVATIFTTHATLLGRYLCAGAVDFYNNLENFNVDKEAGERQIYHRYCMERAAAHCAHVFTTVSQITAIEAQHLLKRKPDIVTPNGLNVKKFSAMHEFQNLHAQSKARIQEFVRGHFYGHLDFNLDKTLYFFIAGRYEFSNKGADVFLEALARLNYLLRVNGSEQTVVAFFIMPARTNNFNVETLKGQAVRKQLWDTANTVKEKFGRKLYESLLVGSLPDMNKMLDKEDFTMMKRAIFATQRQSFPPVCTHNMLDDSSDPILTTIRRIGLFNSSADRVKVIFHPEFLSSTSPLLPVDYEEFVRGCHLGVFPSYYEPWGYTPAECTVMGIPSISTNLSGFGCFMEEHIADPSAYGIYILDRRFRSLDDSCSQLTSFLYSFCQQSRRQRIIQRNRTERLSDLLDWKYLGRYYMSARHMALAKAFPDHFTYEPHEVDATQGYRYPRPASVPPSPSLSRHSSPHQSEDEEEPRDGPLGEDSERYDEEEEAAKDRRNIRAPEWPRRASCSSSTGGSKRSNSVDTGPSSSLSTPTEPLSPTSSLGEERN

B1: glycogenin (GYG1) (protein, UniProt Q9R062 1-333)
chain: MTDQAFVTLTTNDAYAKGALVLGSSLKQHRTTRRMVVLTSPQVSDSMRKVLETVFDDVIMVDVLDSGDSAHLTLMKRPELGITLTKLHCWSLTQYSKCVFMDADTLVLSNIDDLFEREELSAAPDPGWPDCFNSGVFVYQPSIETYNQLLHLASEQGSFDGGDQGLLNTYFSGWATTDITKHLPFVYNLSSISIYSYLPAFKAFGKNAKVVHFLGRTKPWNYTYNPQTKSVNCDSQDPTVSHPEFLNLWWDTFTTNVLPLLQHHGLVKDASSYLMMEHVSGALSDLSFGEAPAAPQPSMSSEERKERWEQGQADYMGADSFDNIKRKLDTYLQ
B2: FRA2 (protein, UniProt P47930 1-326)
chain: MYQDYPGNFDTSSRGSSGSPAHAESYSSGGGGQQKFRVDMPGSGSAFIPTINAITTSQDLQWMVQPTVITSMSNPYPRSHPYSPLPGLASVPGHMALPRPGVIKTIGTTVGRRRRDEQLSPEEEEKRRIRRERNKLAAAKCRNRRRELTEKLQAETEELEEEKSGLQKEIAELQKEKEKLEFMLVAHGPVCKISPEERRSPPTSGLQSLRGTGSAVGPVVVKQEPPEEDSPSSSAGMDKTQRSVIKPISIAGGGFYGEEPLHTPIVVTSTPAITPGTSNLVFTYPNVLEQESPSSPSESCSKAHRRSSSSGDQSSDSLNSPTLLAL
B3: STBD1 (protein, UniProt Q8C7E7 1-338)
chain: MGAVWSALLVGGGLAGALILWLLRGDSGAPGKDGVAEPPQKGAPPGEAAAPGDGPGGGGSGGLSPEPSDRELVSKAEHLRESNGHLISESKDLGNLPEAQRLQNVGADWVNAREFVPVGKIPDTHSRADSEAARNQSPGSHGGEWRLPKGQETAVKVAGSVAAKLPSSSLLVDRAKAVSQDQAGHEDWEVVSRHSSWGSVGLGGSLEASRLSLNQRMDDSTNSLVGGRGWEVDGKVASLKPQQVSIQFQVHYTTNTDVQFIAVTGDHESLGRWNTYIPLHYCKDGLWSHSVFLPADTVVEWKFVLVENKEVTRWEECSNRFLQTGHEDKVVHGWWGIH
B4: CAST (protein, UniProt P51125 1-788)
chain: MSQPGPKPAASPRPSRGAAARHTQEHVNEKNIGSSSKPGEKKGSDEKKAASLGSSQPSRPHVGEAATATKVTASSAATSKSPSMSTTETKAIPVNKQLEGPDQKRPREQAVKTESKKPQSSEQPVVHEKKSKGGPKEGSEPKNLPKHTSSTGSKHAHKEKALSRSNEQMVSEKPSESKTKFQDVPSAGGESVAGGGTVATALDKVVGKKKEQKPFTPASPVQSTPSKPSDKSGMDAALDDLIDTLGGHEDTNRDDPPYTGPVVLDPMYSTYLEALGIKEGTIPPEYRKLLEKNEGITQPLPDSPKPMGTDQAIDALSSDFTCSSPTGKQSEKEKSTGEIFKAQSAGVTRSSVPPKEKKRKVEEEVINDQALQALSDSLGTRQPDPPSHVSQAEQVKEAKAKEERQEKCGEDEDTVPAEYRLKPAKDKDGKPLLPEPEETSKSLSESELIGELSADFDRSTYQDKPSTPAEKKSNDTSQTPPGETVPRASMCSIRSAPPKLASLKGVVPEDAVETLAGSLGTREADPEHEKTVEDKVKEKAKEEEHEKLGEKEETVPPDYRLEEVKDKDGKPLLPKESQEQLAPLSDDFLLDALSQDFSSPANISSLEFEDAKLSAAISEVVSQTPAPSTHAAAPLPGTEQKDKELDDALDELSDSLGQRPPDPDENKPLDDKVKEKIKPEHSEKLGERDDTIPPEYRHLLDNDGKDKPEKPPTKKTEKPDQDRDPIDALSEDLDSCPSTTETSKNTAKGKSKKTSSSKASKDGEKTKDSSKKTEEVSKPKAKEDARHS
B5: TCF7L1 (protein, UniProt Q9Z1J1 1-584)
chain: MPQLGGGRGGAGGGGGGSGAGATSGGDDLGANDELIPFQDEGGEEQEPSSDTASAQRDLDEVKSSLVNESENQSSSSDSEAERRPQPARDAFQKPRDYFAEVRRPQDGAFFKGGAYPGYPFLMIPDLSSPYLSNGPLSPGGARTYLQMKWPLLDVPSSATVKDTRSPSPAHLSNKVPVVQHPHHMHPLTPLITYSNDHFSPASPPTHLSPEIDPKTGIPRPPHPSELSPYYPLSPGAVGQIPHPLGWLVPQQGQPMYSLPPGGFRHPYPALAMNASMSSLVSSRFPHMVAPAHPGLPTSGIPHPAIVSPIVKQEPAAPSLSPAVSAKSPVTVKKEEEKKPHVKKPLNAFMLYMKEMRAKVVAECTLKESAAINQILGRKWHNLSREEQAKYYELARKERQLHAQLYPTWSARDNYGKKKKRKREKQLSQTQSQQQIQEAEGALASKSKKPCIQYLPPEKPCDSPASSHGSALDSPATPSAALASPAAPAATHSEQAQPLSLTTKPEARAQLALHSAAFLSAKAAASNSSQMGSQPPLLSRPLPLGSMPAALLTSPPTFPATLHAHQALPVLQAQPLSLVTKSAH
B6: JPT1 (protein, UniProt P97825 1-154)
chain: MTTTTTFKGVDPNSRNSSRVLRPPGGGSNFSLGFDEPAEQPVRKNKMASNIFGTPEENPPSWAKSAGSKSSGGREDSESPGTQRSNSSEASSGDFLDLKGEGDMHENVDTDFQANLAQMEEKPVPAAPVPSPVAPAPVPSRRNPPGGKSSLVLG

target: T1, HA-tagged GYS1-TbID gene fusion construct (glycogen synthase 1 fused to the biotin ligase TurboID); test: proximity labelling

binding, binds:
CCDC102A (from UniProt Q3TMW1 1-549)
EIF4G3 (from UniProt Q80XI3 1-1579)
Forkhead box O1 (FoxO1) (from UniProt Q9R1E0 1-652)
PP1 (mouse (endogenous in pre-BAT cells)) (enzyme)
WDR45B (from UniProt Q9CR39 1-344)
YAP1 (from UniProt P46938 1-488)
B1
B2
B3
B4
B5
B6
